From PubChem BioAssay AID540276 (National Center for Advancing Translational Sciences (NCATS), 2011)
Among all 300,000 compounds or so, about 5,400 (1.8%) were called active. The shares of active, inactive and inconclusive entries below differ from those in the screen. Calls come from the whole dose curve; tested in HEK293 cells. Potencies of inconclusive entries are doubtful fits and often do not repeat.

test: qHTS for inhibitors of binding or entry into cells for Marburg Virus; settings: Marburg virus pseudotyped entry inhibition, cell reporter; activity change, negative = inhibition: at 37.8 µM (top of the series) unless noted
% is set by controls: 0 for no effect and ±100 for the full control effect; potency is the fitted concentration of half-maximal effect.

SMILES | Potency | activity change, negative = inhibition
O=C(NN=C1c2ccccc2-c2ccccc21)c1cccc(Br)c1 | inconclusive: 11.2 µM [inhibitor, partial curve] | –
O=C1C=CC(=O)N1c1ccc(OC(F)F)cc1 | inconclusive: 18.4 µM [inhibitor, single point] | –
Nc1ccccc1-n1cccc1 | inconclusive: 4.47 µM [inhibitor, full curve, poor fit] | –
COc1ccc(S(=O)(=O)N2CCOC23CCN(S(=O)(=O)c2ccc([N+](=O)[O-])cc2)CC3)cc1 | inconclusive: 0.891 µM [inhibitor, full curve, poor fit] | –
CCc1nnc(NC(=O)c2cc3c(s2)CCCCC3)s1 | inactive | –
CC(O)/C=C/c1ccc2ccccc2n1 (stereo not drawn) | inconclusive: 29.1 µM [inhibitor, single point] | –
CCn1c(C(C)C)n[nH]c1=S | inconclusive: 3.55 µM [inhibitor, single point] | –
CCOc1ccc(C(=O)c2cn(Cc3ccc(OC)cc3)c3cc(OC)c(OC)cc3c2=O)cc1 | inconclusive: 14.1 µM [inhibitor, single point] | –
O=C(C[n+]1cc(Br)cc(Br)c1)c1ccccc1 | inactive | –
Cc1onc(-c2ccccc2)c1C(=O)c1c[nH]c(C(=O)NCCCN2CCOCC2)c1 | inconclusive: 17.8 µM [inhibitor, single point] | –
COc1cccc(-n2c(-c3ccco3)nc3c(cnn3-c3ccc(C)cc3)c2=O)c1 | inactive | –
CC(=O)C1=C(C)N(CCC=Cc2ccccc2)C(=O)NC1c1ccccc1 (stereo not drawn) | inconclusive: 5.96 µM [inhibitor, single point] | –
N#Cc1cnc2cc(-c3ccccc3)nn2c1N | inconclusive: 3.16 µM [activator, single point] | –
O=C(c1ccc(Br)o1)N1CCN(c2ccccc2F)CC1 | inactive | –
O=C(CSc1ccc2nnc(CCNC(=O)c3ccc(F)cc3)n2n1)NCc1ccco1 | inconclusive: 31.6 µM [activator, single point] | –
CC(C)CCNC(=O)c1ccc2c(c1)ncn2C1CCCCC1 | inactive | –
COc1ccccc1CNC(=O)c1ccc(-c2ccccc2)cc1 | inconclusive: 10 µM [inhibitor, partial curve] | –
Cc1ccc(NC(=O)NCC2CCN(Cc3cccc(Cl)c3)CC2)cc1Cl | inconclusive: 11.2 µM [inhibitor, partial curve, poor fit] | –
CC1CC(C)CN(C(=O)CSc2nc(Cc3cccs3)nc3ccccc23)C1 (stereo not drawn) | inconclusive: 29.1 µM [inhibitor, partial curve, poor fit] | –
CC(=O)ONC(=Nc1ccccc1)c1nonc1N | inconclusive: 5.62 µM [activator, single point] | –
O=C(CN(c1cccc(Cl)c1)S(=O)(=O)c1ccc(Cl)cc1)N1CCc2ccccc2C1 | inconclusive: 29.1 µM [inhibitor, single point] | –
Cc1ccc(-n2cc(CNCCN3CCOC3=O)c(-c3cccc(C)c3)n2)cc1 | inconclusive: 35.5 µM [inhibitor, single point] | –

In the list so far, 14 have nitrogen in an aromatic ring.
SMILES | Potency | activity change, negative = inhibition
Nc1ccccc1-n1cccc1 | inconclusive: 4.47 µM [inhibitor, full curve, poor fit] | –
CCc1nnc(NC(=O)c2cc3c(s2)CCCCC3)s1 | inactive | –
CC(O)/C=C/c1ccc2ccccc2n1 (stereo not drawn) | inconclusive: 29.1 µM [inhibitor, single point] | –
CCn1c(C(C)C)n[nH]c1=S | inconclusive: 3.55 µM [inhibitor, single point] | –
CCOc1ccc(C(=O)c2cn(Cc3ccc(OC)cc3)c3cc(OC)c(OC)cc3c2=O)cc1 | inconclusive: 14.1 µM [inhibitor, single point] | –
O=C(C[n+]1cc(Br)cc(Br)c1)c1ccccc1 | inactive | –
Cc1onc(-c2ccccc2)c1C(=O)c1c[nH]c(C(=O)NCCCN2CCOCC2)c1 | inconclusive: 17.8 µM [inhibitor, single point] | –
COc1cccc(-n2c(-c3ccco3)nc3c(cnn3-c3ccc(C)cc3)c2=O)c1 | inactive | –
N#Cc1cnc2cc(-c3ccccc3)nn2c1N | inconclusive: 3.16 µM [activator, single point] | –
O=C(CSc1ccc2nnc(CCNC(=O)c3ccc(F)cc3)n2n1)NCc1ccco1 | inconclusive: 31.6 µM [activator, single point] | –
CC(C)CCNC(=O)c1ccc2c(c1)ncn2C1CCCCC1 | inactive | –
CC1CC(C)CN(C(=O)CSc2nc(Cc3cccs3)nc3ccccc23)C1 (stereo not drawn) | inconclusive: 29.1 µM [inhibitor, partial curve, poor fit] | –
CC(=O)ONC(=Nc1ccccc1)c1nonc1N | inconclusive: 5.62 µM [activator, single point] | –
Cc1ccc(-n2cc(CNCCN3CCOC3=O)c(-c3cccc(C)c3)n2)cc1 | inconclusive: 35.5 µM [inhibitor, single point] | –

Entries of single compounds from above. Order of values: Potency	activity change, negative = inhibition
`Nc1ccccc1-n1cccc1` in the list: inconclusive: 4.47 µM [inhibitor, full curve, poor fit]	–
`O=C(CSc1ccc2nnc(CCNC(=O)c3ccc(F)cc3)n2n1)NCc1ccco1` in the list: inconclusive: 31.6 µM [activator, single point]	–

The results go on.

SMILES | Potency | activity change, negative = inhibition
CN(CC(=O)Nc1cccnc1)S(=O)(=O)c1cc(Cl)ccc1Cl | inconclusive: 4.11 µM [activator, full curve, poor fit] | –
COc1ccc2c(c1)Cc1sc(NC(=O)c3cccc(F)c3)nc1-2 | inconclusive: 5.62 µM [activator, single point] | –
CCOC(=O)c1c(C)[nH]c(C)c1C(=O)CN1C(=O)NC2(CCC(C)CC2)C1=O (stereo not drawn) | inactive | –
COc1ccc(CN(C(=O)c2snc(C(N)=O)c2N)C(C(=O)NC2CCCC2)c2ccc(OC)c(OC)c2)cc1 (stereo not drawn) | inactive | –
CN1CCN(c2nc3c(c(=O)[nH]c(=O)n3C)n2CCOc2ccccc2)CC1 | inactive | –
COc1ccc(-c2nnc3ccc(SCC(=O)Nc4nccs4)nn23)cc1OC | inconclusive: 3.98 µM [activator, single point] | –
CCCNC(=O)c1nnsc1S(=O)c1ccc(Cl)cc1 (stereo not drawn) | inconclusive: 1.26 µM [inhibitor, full curve, poor fit] | –
CCOC(=O)N1CCN(S(=O)(=O)c2ccc(C)c([N+](=O)[O-])c2)CC1 | inconclusive: 11.2 µM [inhibitor, partial curve, poor fit] | –
O=C(CCN1CCCCO1)N1CCCC(Nc2ccc(F)cc2)C1 (stereo not drawn) | inactive | –
CN(C(=O)CSc1nc2ccc(NC(=O)CCc3ccccc3)cc2s1)c1ccccc1 | inconclusive: 35.5 µM [inhibitor, partial curve, poor fit] | –
Cc1ccc(S(=O)(=O)N2CCCN(S(=O)(=O)c3ccc(C)c(C)c3)CC2)cc1C | inconclusive: 8.91 µM [inhibitor, partial curve, poor fit] | –
CCN1C(=O)C(=C2C=C(C)N(Cc3ccco3)C(C)=C2)C(=O)N(CC)C1=S | inconclusive: 3.98 µM [inhibitor, full curve, poor fit] | –
O=C(Cn1cccc1C(=O)c1ccccc1)NCc1cccnc1 | inactive | –
COc1ccccc1Nc1ccc([N+](=O)[O-])cn1 | inconclusive: 14.1 µM [inhibitor, single point] | –
CCOC(=O)Cc1csc(NC(=O)Cc2ccc(Br)cc2)n1 | inconclusive: 14.1 µM [inhibitor, single point] | –
CCn1c(SC(C)C(=O)Nc2ccc(N3CCOCC3)cc2)nnc1-c1ccco1 (stereo not drawn) | inconclusive: 2.51 µM [activator, full curve, poor fit] | –
Cc1ccc(/C=N/NC(=O)CSc2nc3ccccc3s2)o1 | inconclusive: 3.55 µM [activator, single point] | –
Cc1ccc(S(=O)(=O)N2CCC(=O)N(C(COCc3cccc(C)c3)Cc3ccccc3)CC2)cc1 (stereo not drawn) | inconclusive: 23.1 µM [inhibitor, single point] | –
CCC(=O)C1CCCN(C(=O)c2ccc(OC)c(OC3CCN(C(C)=O)CC3)c2)C1 (stereo not drawn) | – | inconclusive: 17.8% [activator] [at 46.1 µM]
COc1ccc2c(c1)[C@H](C=Cc1ccccc1)[C@@H]([C@H](O)CO)O2 | inactive | –
CC12C=C(C=Cc3ccc(C(F)(F)F)cc3)C(C)(C1)C(c1ccc(C(F)(F)F)cc1)CC2=O (stereo not drawn) | inactive | –
COc1ccccc1C(CNC(=O)c1ccc(C)c(S(=O)(=O)N2CCCCC2)c1)N1CCCC1 (stereo not drawn) | inconclusive: 11.2 µM [inhibitor, partial curve, poor fit] | –
Cn1c(=O)c2c3c(sc2n2c(SCC(N)=O)nnc12)C[C@H](C(C)(C)C)CC3 | inactive | –

SMILES | Potency | activity change, negative = inhibition
O=C(Nc1nncs1)C1COc2ccccc2O1 (stereo not drawn) | inconclusive: 35.5 µM [activator, single point] | –
Cc1ccc(N(Cc2cc(=O)[nH]c3ccccc23)C(=O)CCl)c(C)c1 | inconclusive: 14.1 µM [inhibitor, partial curve, poor fit] | –
O=C(Cn1cnc2c(nnn2Cc2ccc(Cl)cc2)c1=O)OCc1ccccc1 | inconclusive: 29.1 µM [inhibitor, single point] | –
CCc1nc(N=Nc2c(O)[nH]c3ccccc23)c2c3c(sc2n1)CCC3 | inactive | –
O=C1CS/C(=N/N=C/c2ccccc2OS(=O)(=O)c2ccccc2)N1 | inactive | –
OC1CCCC1NCc1ccnc2cc(Cl)ccc12 (stereo not drawn) | inconclusive: 10 µM [inhibitor, partial curve] | –
COc1cc(CNC(C)(C)CO)cc(Br)c1OCc1ccccc1 | inconclusive: 10 µM [inhibitor, partial curve, poor fit] | –
O=C1CCCN1CCCNC(=S)Nc1ccc(F)cc1 | – | inconclusive: 17.2% [activator] [at 46.1 µM]
COC(=O)c1ccc(CN(c2ccc(OC)cc2)S(=O)(=O)c2ccccc2)cc1 | inconclusive: 15.8 µM [inhibitor, single point] | –
CCOc1cc(CNCCc2ccc(S(N)(=O)=O)cc2)ccc1OCc1ccc(Cl)cc1 | inconclusive: 35.5 µM [inhibitor, single point] | –
Cc1cc(=O)[nH]c(SCC(=O)Nc2ccc(Br)cn2)n1 | inactive | –
CC1=C(C)CC(C(=O)Nc2ccc(C(N)=O)cc2)C(C(=O)O)C1 (stereo not drawn) | inactive | –
CC#CCC(CC#CC)c1nc2ccccc2c(=O)n1N | inconclusive: 3.16 µM [activator, full curve] | –
O=C(CNC(=O)c1ccccc1Cl)NC1CCN(Cc2ccccc2)CC1 | inconclusive: 12.6 µM [inhibitor, partial curve] | –
N#Cc1c(Cl)nsc1NN | inactive | –
COc1cccc(C2N(c3ccc(Cl)c(Cl)c3)C(=O)C3CCCN32)c1OC (stereo not drawn) | inconclusive: 2.91 µM [inhibitor, partial curve, poor fit] | –
CN(C)c1cc(Cl)c2nonc2c1N | inconclusive: 1.58 µM [inhibitor, partial curve, poor fit] | –
CCN1CCC(=NNC(=O)c2ccco2)CC1 | inconclusive: 17.8 µM [activator, single point] | –
O=C(O)C1CCCN1C1=NS(=O)(=O)c2ccccc21 (stereo not drawn) | inconclusive: 5.62 µM [inhibitor, single point] | –
CCOC(=O)c1cn(-c2c(Cl)cccc2Cl)c2cc(Cl)c([N+](=O)[O-])cc2c1=O | inactive | –
CCOC(=O)CNC(=O)c1cc2c(=O)n3cccc(C)c3nc2s1 | inconclusive: 6.31 µM [activator, partial curve, poor fit] | –
CCc1nnc(NC(=O)c2cccc(C(=O)Nc3nnc(CC)s3)n2)s1 | inconclusive: 3.55 µM [inhibitor, partial curve, poor fit] | –
